Results: publication PMC3584131
Results are given in words; binding and its absence hold for the method and conditions named. In cells and extracts the contact can be indirect. Here binding means that the protein was enriched with, or labelled near, the bait; the list need not be complete.

Chains of the proteins cited; added tags and fusions are not shown.
UniProt Q9QZS3: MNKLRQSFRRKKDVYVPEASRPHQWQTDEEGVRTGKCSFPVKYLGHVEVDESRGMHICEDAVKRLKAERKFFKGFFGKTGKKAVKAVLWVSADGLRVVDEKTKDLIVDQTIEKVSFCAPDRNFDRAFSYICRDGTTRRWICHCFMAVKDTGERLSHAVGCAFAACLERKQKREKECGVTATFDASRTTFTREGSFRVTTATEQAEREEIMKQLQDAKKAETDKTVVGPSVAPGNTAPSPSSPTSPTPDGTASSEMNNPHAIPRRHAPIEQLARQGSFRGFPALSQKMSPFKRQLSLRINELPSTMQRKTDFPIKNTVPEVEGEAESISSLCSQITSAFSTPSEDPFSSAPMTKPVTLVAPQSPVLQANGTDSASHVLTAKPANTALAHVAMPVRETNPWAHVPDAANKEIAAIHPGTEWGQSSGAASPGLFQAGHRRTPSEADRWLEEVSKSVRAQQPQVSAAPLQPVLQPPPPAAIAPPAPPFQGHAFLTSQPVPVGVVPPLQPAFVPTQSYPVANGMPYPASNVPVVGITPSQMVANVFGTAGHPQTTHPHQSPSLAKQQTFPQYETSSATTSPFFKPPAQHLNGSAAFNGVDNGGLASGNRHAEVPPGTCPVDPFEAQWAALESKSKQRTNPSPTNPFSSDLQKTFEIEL

Molecular target: endogenous Numb (CD133+/CD49f+ murine liver TISCs) (mouse (endogenous in murine TISCs)) (UniProt Q9QZS3)
Experiment: affinity purification with mass spectrometry; endogenous Numb immunopurified with anti-Numb (H-70) antibody and protein G-PLUS agarose from pooled sucrose gradient fractions 8-13 of murine TISC cytoplasmic lysate; washes in Buffer W (20 mM Tris pH 7.3, 300 mM NaCl, 0.5% triton X-100, 2% glycerol); LC-MS/MS; anti-GFP control

- binding: binds
B1: endogenous TBC1D15 (murine TISCs) (protein, UniProt Q9CXF4 1-671)
chain: MAAAGVVSGKIIYEQEGVYIHSSCGKANDQDSLISGILRVLEKDAEVIVDWRPLDDALDSSSILCAGKDSSSVVEWTQAPKERAHRGSDQQSSYEAEWDMVTTVSFKKKPHTNGDAPGHRNGKSKWSFLFSLADLKSVKQSKEGMGWSYLVFCLKDDVMLPALHFHQGDSKLLIESLEKYVVLCESPQDSRTLLVNCQNKSLSQSFENLLDEPAYGLIQKIKKDPYTATMVGFSKVTNYIFDSLRGSDPSTHQRPPSEMADFLSDAIPGLKINQQEEPGFEVITRIDLGERPVVQRREPVSLEEWNKSLDPEGRLVAVESMKQKIFRGGLSHSLRKQAWKFLLGYFPWDSTKEERTQLQKQKTDEYFRMKLQWKSVSEAQEKRNSRLRDYRSLIEKDVNRTDRTNKFYEGQDNPGLILLHDILMTYCMYDFDLGYVQGMSDLLSPLLYVMENEVDAFWCFASYMDQMHQNFEEQMQGMKTQLIQLSTLLRLLDSGFCSYLESQDSGYLYFCFRWLLIRFKREFSFLDILRLWEVMWTELPCKNFHLLLCCAILESEKQQIMAKHYGFNEILKHINELSMKIDVEDILCKAEAISLQMAQCKELPQAVCEILGLQDSEITTPDSDTDENVGSPCPVSAFPSSTLPILAASEAKDDSPTQTLASPNACRLTPA
